Data on 36 compounds can be found in PubChem BioAssay AID1487 (National Center for Advancing Translational Sciences (NCATS), 2009).

SMILES strings stand for the structures. The list shows a part of the results. Shown are side measurements of this screen, not its main read-out; they come without a call. Most of these compounds were active or inconclusive in the main read-out, so they are no random draw. The note in brackets gives the kind of curve behind each potency; many fits are weak.

What is called AC50 is the concentration at which the activity in the assay is half-maximal.

This assay in a line: qHTS Assay for Modulators of Lamin A Splicing. Conditions: HeLa LMNA splicing GFP/RFP minigene ratio, 48 h. Put shortly:
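Read-out is the ratio of GFP to DsRed2 object intensity, acquired by 488 nm laser-scanning cytometry on HeLa lamin A-EGFP minigene reporter cells. Compound incubation 48 hrs at 37 °C in Opti-MEM with 2% FBS; DMSO 0.5% final.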
For orientation: In qHTS, concentration-response curves come from the screen itself.

Where [1] appears, read: measured here: GFP splicing reporter channel.
Setting [2] is: measured here: RFP viability control channel.

As to `CC(C)c1ccc(N2C(=O)CC(Sc3nc4ccccc4o3)C2=O)cc1` (centres undefined), the AC50 under setting [1] was 17.8 µM [falling, partial curve] and the AC50 under setting [2] was 22.4 µM [falling, single point].
Take `COc1ccccc1N1CCN(C(=O)c2ccc3c(Cl)c4c(nc3c2)CCCC4)CC1`: the AC50 under setting [2] is 17.8 µM [rising, partial curve].
Turning to `O=c1[nH]nc(Cc2ccc3ccccc3n2)c2ccccc12`, the AC50 runs as follows: under setting [1], 15.8 µM [rising, single point]; under setting [2], 14.1 µM [rising, partial curve].
For `CN(Cc1cnc2nc(N)nc(N)c2n1)c1ccc(C(=O)N[C@H](CCC(=O)O)C(=O)O)cc1`, the AC50 under setting [1] was 0.00398 µM [falling, full curve].
In the case of `Cc1n[nH]c(C)c1Sc1ccccc1N`, the AC50 under setting [2] was 2.82 µM [rising, partial curve].
For `Cc1cc(C(=O)OCC(=O)c2cccs2)c2ccccc2n1`, the AC50 under setting [1] was 3.98 µM [falling, partial curve, poor fit].
Take `Cc1cccc(C(=O)N[C@H](C(=O)Nc2ncc(C)s2)C(C)C)c1`: under setting [2], the AC50 is 35.5 µM [falling, single point].
Consider `CCN(CC)C(=O)c1ccc(Cn2cc([N+](=O)[O-])cn2)o1`, for which the AC50 under setting [1] is 12.6 µM [falling, partial curve, poor fit] and the AC50 under setting [2] was 44.7 µM [falling, partial curve, poor fit].
On to `COc1ccc(NC(=O)Nc2cccnc2)c(OC)c1`, for which the AC50 under setting [1] was 0.0316 µM [falling, full curve, poor fit].
Take `CC(NC(=O)c1ccccc1NC(=O)c1nsc2ccccc12)c1ccccc1` (centres undefined): the AC50 is 4.47 µM [rising, partial curve] under setting [1] and 6.31 µM [rising, single point] under setting [2].
Consider `CCCCCCCCCCS(=O)(=O)N/N=C/c1ccc(O)cc1`, for which the AC50 is, setting by setting: under setting [1], 28.2 µM [rising, single point]; under setting [2], 35.5 µM [rising, single point].
For the compound `Fc1cc(Br)ccc1Nc1c2c(nc3nc(-c4cccs4)nn13)CCCC2`, the AC50 reads like this: under setting [1], 1.41 µM [rising, partial curve, poor fit]; under setting [2], 1.41 µM [rising, partial curve, poor fit].
With `CC1CCCN(c2ccc(F)cc2N)C1` (centres undefined), the concentration at half-maximal activity (AC50) under setting [1] was 5.01 µM [rising, single point].
In the case of `O=C(O)c1ccc(C2NCC(c3ccccc3Cl)c3c2[nH]c2ccccc32)cc1` (centres undefined), the AC50 under setting [1] is 20 µM [rising, single point].
For the compound `O=C(O)c1ccccc1C(=O)Nc1ccc(Oc2cccc3ccccc23)cc1`, the AC50 reads like this: under setting [1], 0.0447 µM [falling, full curve, poor fit]; under setting [2], 0.0794 µM [falling, full curve, poor fit].
Take `CS(=O)(=O)N(CC(=O)N1CCN(Cc2ccc3c(c2)OCO3)CC1)Cc1ccc(Cl)cc1`: the AC50 was 25.1 µM [rising, partial curve, poor fit] under setting [1] and 17.8 µM [rising, single point] under setting [2].
Turning to `CCOC(=O)c1c(-c2ccc(C)o2)csc1NC(=O)CSc1nnc(C)s1`, the concentration at half-maximal activity (AC50) under setting [1] is 31.6 µM [rising, single point].
Regarding `CCN(CC)c1ccc(N=Cc2ccc([N+](=O)[O-])o2)cc1`, the concentration at half-maximal activity (AC50) under setting [2] was 3.98 µM [rising, partial curve].
As to `O=C(COc1cccnc1[N+](=O)[O-])Nc1ccccc1Sc1ccccc1`, the AC50 reads like this: under setting [1], 31.6 µM [falling, partial curve]; under setting [2], 20 µM [falling, partial curve].
For `CCN(CC)C(=O)Oc1ccc2c(=O)c(-c3ccc(OC)cc3)coc2c1`, the AC50 under setting [2] was 12.6 µM [rising, partial curve].
On the same count and under the same terms, as for `CCOc1cc(/C=C2/C(=N)N3OC(C)=CC3=NC2=O)ccc1OCCOc1ccccc1`, the figure is 12.6 µM [rising, single point].
In the case of `Cc1ccc2cc(CN(Cc3nnnn3C3CCCC3)C3CCCCC3)c(=O)[nH]c2c1C`, under setting [1], the AC50 was 5.62 µM [rising, single point].
`COc1cc(OC)cc(C(=O)Nc2nc3ccccc3[nH]2)c1`: the AC50 under setting [2] was 14.1 µM [rising, single point].
Same read-out and setting: as for `COc1ccc(Cn2c(CCC(=O)NCc3ccco3)nc3cccnc32)cc1`, the figure is 0.891 µM [falling, full curve, poor fit].
For `CCc1nc(N2CCN(C(=O)c3ccco3)CC2)c2oc3ccccc3c2n1`, the AC50 under setting [2] was 11.2 µM [rising, partial curve].
On to `CCc1nnc(NC(=O)CSc2nnc3c(n2)[nH]c2ccccc23)s1`, for which the concentration at half-maximal activity (AC50) under setting [1] is 0.0398 µM [rising, full curve, poor fit].
On to `Cn1c(=O)c2c(nc(SCC(=O)NCC3CCCO3)n2Cc2ccc(F)cc2)n(C)c1=O` (centres undefined), for which the AC50 under setting [1] was 28.2 µM [falling, partial curve, poor fit].
For `CC(=O)c1ccc(OCC(=O)c2ccc(-c3ccccc3)cc2)cc1`, the AC50 under setting [1] is 22.4 µM [rising, partial curve, poor fit] and the AC50 under setting [2] was 28.2 µM [rising, partial curve].
Turning to `COc1ccc2[nH]c(=O)c(CNc3ccc(C)c(C)c3)cc2c1`, the AC50 is 3.16 µM [rising, partial curve] under setting [1] and 11.2 µM [rising, partial curve] under setting [2].
As for `Cc1cc2ccccc2nc1SCC(=O)NC1CCCCC1`, the AC50 by setting is: under setting [1], 0.316 µM [rising, partial curve]; under setting [2], 0.316 µM [rising, partial curve].
For `O=S(=O)(Nc1cccc2c1ccc1cccn12)c1cccs1`, under setting [1], the AC50 was 35.5 µM [rising, single point].
Consider `O=C1/C(=C\c2ccco2)SC(=S)N1c1ccc(O)cc1`, for which the AC50 was 12.6 µM [rising, partial curve] under setting [1] and 14.1 µM [rising, partial curve] under setting [2].
With `CCCC(=O)Nc1nc(-c2ccc(OC)cc2)cs1`, under setting [2], the AC50 is 25.1 µM [rising, single point].
`OCCC1CN(Cc2cc3c(cc2Cl)OCO3)CCN1C1CCCC1` (centres undefined): the AC50 under setting [1] was 35.5 µM [falling, single point].
The same measure, in the same setting: with `O=C(CC(Nc1ccccc1)c1ccc(F)cc1)c1ccccc1` (centres undefined) the figure was 11.2 µM [falling, partial curve].
Take `CC1=C(C(=O)OCC2CCCO2)C(c2coc3ccccc3c2=O)C2=C(CC(C)(C)CC2=O)N1` (centres undefined): the AC50 under setting [2] was 35.5 µM [falling, single point].
